This assay has as its target E. coli ISC-type ferredoxin, cluster-loaded (holo-Fdx) (E. coli) (UniProt P0A9R4). The assay can be described thus: NMR relaxation (15N T1, T2; correlation time from R2/R1); holo-Fdx alone; 298 K, 600 MHz, 20 mM Tris-HCl, 500 mM NaCl, 20 mM TCEP, pH 8; both purified.

Results are given in words; binding and its absence hold for the method and conditions named.

B1: E. coli ISC-type ferredoxin, cluster-loaded (holo-Fdx) (protein, UniProt P0A9R4 1-111)
chain: MPKIVILPHQDLCPDGAVLEANSGETILDAALRNGIEIEHACEKSCACTTCHCIVREGFDSLPESSEQEDDMLDKAWGLEPESRLSCQARVTDEDLVVEIPRYTINHAREH
Regarding B1, the binding result is on record as “no binding”.
